Laboratory results taken from PubChem BioAssay AID624297 (National Center for Advancing Translational Sciences (NCATS), 2012).
The campaign covered roughly 340,000 compounds. About 6,200 (1.8%) were called active. This list was built around the results that the source calls inconclusive (neither active nor inactive); the mix of calls is not that of the screen. The call rests on the fitted dose curve; in most records, active means well fitted activation curve with a large enough effect; inconclusive means small, poorly fitted or top-dose-only effect; inactive means no such curve, though single readings can be large or run the other way. Potencies beside an inconclusive call are fits to weak or partial responses and may not hold up.
Potency means the concentration at half of the fitted maximal effect.

Test: A quantitative high throughput screen for small molecules that induce DNA re-replication in SW480 colon adenocarcinoma cells. Further: nearly all actives have a fitted effect of over 55% in size.
Details: Hoechst DNA content imaging, 48 h; series mostly up to 46.1 µM
How it was run: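 Image-based DNA-content assay: after two days of treatment, nuclei were labelled with the DNA dye Hoechst and imaged, and hits were compounds raising the count of nuclei showing high fluorescence intensity.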
For `O=C(/C=C/c1cn(-c2ccccc2)nc1-c1cccs1)NCCN1CCOCC1`, the Potency was inconclusive: 29.1 µM [activator, single point].
In the case of `CN(Cc1nc2ccccc2c(=O)[nH]1)C(=O)c1cc2c(s1)CCCCC2`, the Potency is reported as “inactive”.
In the case of `O=C(Nc1ccc(Cl)c(Cl)c1)Nc1ccccc1O`, the Potency is reported as “inactive”.
In the case of `CCN(CC)CCNC(=O)c1ccc(NC(=O)c2cc(-c3ccco3)nc3ccccc23)cc1`, the Potency is reported as inconclusive: 29.1 µM [activator, partial curve, poor fit].
With `Cc1ccc(NC(=O)CCC(=O)N/N=C/c2ccc([N+](=O)[O-])o2)cc1C` the Potency was inconclusive: 29.1 µM [activator, single point].
For `O/N=C(/c1ccc(F)cc1)C1CC1c1c(F)cccc1Cl` (stereo not given), the Potency was inconclusive: 29.1 µM [activator, single point].
In the case of `CC1CCN(C(=O)COC(=O)c2ccc(N3CCCC3=O)cc2)CC1`, the Potency is reported as “inactive”.
For `O=C(Cc1ccc(Cl)cc1)NCCc1c[nH]c2ccccc12`, the Potency was “inactive”.
For `O=C(CSC(=S)N1CCSCC1)c1ccc(Cl)cc1`, the Potency was “inactive”.
In the case of `COc1cc(C(=O)N2CCN(c3ccccc3OC)CC2)c([N+](=O)[O-])cc1OC`, the Potency is reported as inconclusive: 23.1 µM [activator, single point].
In the case of `COc1ccccc1C1=CC(=O)C[C@H](c2ccc3c(c2)OCO3)C1`, the Potency is reported as inconclusive: 23.1 µM [activator, single point].
In the case of `CN1CCN(c2oc(-c3ccccc3)nc2S(=O)(=O)c2ccc(Br)cc2)CC1`, the Potency is reported as inconclusive: 23.1 µM [activator, single point].
With `Cc1ccc(NC(=S)NNC(=O)c2ccccc2O)c(C)c1` the Potency was inconclusive: 14.6 µM [activator, single point].
With `O=C(Nc1ccc(N2CCCCC2)c(S(=O)(=O)Nc2ccccc2Cl)c1)c1cccnc1` the Potency was inconclusive: 10.3 µM [activator, partial curve, poor fit].
With `Cc1ccc2c(c1)C(c1ccncc1)=NNC(c1ccccc1)=N2` the Potency was “inactive”.
In the case of `O=C(CNC(=O)c1ccccc1F)NNC(=O)c1ccccc1O`, the Potency is reported as “inactive”.
For `O=C(c1ccc2snnc2c1)N1CCCCC1`, the Potency was “inactive”.
With `CCCCN(C(=O)CCC(=O)Nc1cc(C)on1)C(C(=O)NC1CCCC1)c1ccc(F)cc1` (stereo not given) the Potency was inconclusive: 29.1 µM [activator, single point].
For `CCOc1ccc(C(C)=O)cc1CC(C(N)=O)C(N)=O`, the Potency was inconclusive: 29.1 µM [activator, partial curve, poor fit].
In the case of `CCCCC(=O)Nc1ccc(C(=O)Nc2ccc(OC)cc2[N+](=O)[O-])cc1`, the Potency is reported as inconclusive: 29.1 µM [activator, single point].
